Source: paper PMC10449492

B1: High-molecular-weight rhoptry protein 3 (RhopH3) (protein, UniProt Q8I395 25-897)
chain: KDVFAGFVTKKLKTLLDCNFALYYNFKGNGPDAGSFLDFVDEPEQFYWFVEHFLSVKFRVPKHLKDKNIHNFTPCLNRSWVSEFLKEYEEPFVNPVMKFLDKEQRLFFTYNFGDVEPQGKYTYFPVKEFHKYCILPPLIKTNIKDGESGEFLKYQLNKEEYKVFLSSVGSQMTAIKNLYSTVEDEQRKQLLKVIIENESTNDISVQCPTYNIKLHYTKECANSNNILKCIDEFLRKTCEKKTESKHPSADLCEHLQFLFESLKNPYLDNFKKFMTNSDFTLIKPQSVWNVPIFDIYKPKNYLDSVQNLDTECFKKLNSKNLIFLSFHDDIPNNPYYNVELQEIVKLSTYTYSIFDKLYNFFFVFKKSGAPISPVSVKELSHNITDFSFKEDNSEIQCQNVRKSLDLEVDVETMKGIAAEKLCKIIEKFILTKDDASKPEKSDIHRGFRILCILISTHVEAYNIVRQLLNMESMISLTRYTSLYIHKFFKSVTLLKGNFLYKNNKAIRYSRACSKASLHVPSVLYRRNIYIPETFLSLYLGLSNLVSSNPSSPFFEYAIIEFLVTYYNKGSEKFVLYFISIISVLYINEYYYEQLSCFYPKEFELIKSRMIHPNIVDRILKGIDNLMKSTRYDKMRTMYLDFESSDIFSREKVFTALYNFDSFIKTNEQLKKKNLEEISEIPVQLETSNDGIGYRKQDVLYETDKPQTMDEASYEETVDEDAHHVNEKQHSAHFLDAIAEKDILEEKTKDQDLEIELYKYMGPLKEQSKSTSAASTSDEISGSEGPSTESTSTGNQGEDKTTDNTYKEMEELEEAEGTSNLKKGLEFYKSSLKLDQLDKEKPKKKKSKRKKKRDSSSDRILLEESKTFTSENEL
B2: DNA/RNA-binding protein (ALBA4) (protein, UniProt A0A5K1K8Y8 1-372)
chain: MENDKKHNQKQNNVDENEFPNSKVLLVSVKRTRRFLERTARELLAGGTRYIILSGLGDALPLCVQLQSSLQSKNAANVVKIETSYSYFNSNYSYTPGLKIYMEKHPEFKGSRISPGYVSFHEKTDSFTPIYDENPNEYICSLNAGDNNLYVGGEGINGAFSELLSSHNQEVDKYESLFKELLTKAVNENGEKPDEEVKSVLYDNVDKKYPDVKLALCRIRNSLKKGSDHSTGSVFIVTFKKNFPHKKEKNMGMVYVVGPKGKNYNSVEEFLDEVQETAENLMTTLCDYNGLVKREEIKHVRMNTCRICLFSGSIFKHPNASKLDVAKAILNGLAVGYRHGPSPRLNFAYDENVFKDAWVETTGLQVFNHNEQ
B3: 40S ribosomal protein S3A (RPS3A) (protein, UniProt O97313 1-262)
chain: MAVGKNKRTSKGKKGGKKKVTDVFTKKEWYDLKAPKMFLVRNFGKTLVTKTIGKKLATDSLKGRIYEVNLADLNNDEDQAHKKIKLSCDHIINRDCYTDFCGLSITRDKLCSLIRKGYTLIEGHTDVKTLDNYHLRMFCIAFTKKRQNQTKSTCYAQTSQIKKIRKKMVDIMTAEASKVLLKDLVKKFIPESIGKEIEKQCKKIYPLQNVLIRKVKILKRPKLDISKLMELHTDPKEESGKNVNALPESKEATNILTAELKH

What follows are molecules tested against PfUPF1-HA (P. falciparum (endogenous in NF54 parasites)) (assay: affinity purification with mass spectrometry; anti-HA agarose beads with the Triton X-100-soluble fraction of saponin-isolated trophozoites (PfUPF1-HA, PfUPF2-HA, WT control), overnight at 4°C; IP buffer 1% Triton X-100, 50 mM Tris-HCl, 150 mM NaCl, 2 mM EDTA; five washes; LC-MS/MS of eluates; two biological replicates; hit: at least two significant peptides in both replicates and fivefold over WT or none in WT).

Molecule	binding
60S ribosomal protein L13-2 (RPL13-2) (from UniProt Q8IAX6)	binds
60S ribosomal protein L35 (RPL35) (from UniProt Q8IIB4)	binds
BFR1 domain-containing protein (BFR1) (from UniProt C6KT13)	binds
Peroxiredoxin (nPrx) (from UniProt Q8IJD0)	binds
Phosphoribosylpyrophosphate synthetase (PRPS) (from UniProt Q8IE67)	binds

What follows are molecules tested against PfUPF2-HA (P. falciparum (endogenous in NF54 parasites)) (UniProt Q8I2Q1) in the same assay as above.

Molecule	binding
60S ribosomal protein L6 (60SRPL6) (from UniProt Q8IE85)	binds
ATP-dependent RNA helicase (DBP1) (from UniProt Q8IAU1) (enzyme)	binds
PfUPF1 (from UniProt A0A143ZY29)	binds
PfUPF3b (from UniProt A0A5K1K8T6)	binds
Single-strand telomeric DNA-binding protein GBP2 (from UniProt Q8IJX3)	binds

Molecular target: PfUPF1-HA (P. falciparum (endogenous in NF54 parasites))
Assay: as above
Remark: another data set of the same source

Molecule	binding
B1	binds
B2	binds
B3	binds

Molecular target: PfUPF2-HA (P. falciparum (endogenous in NF54 parasites)) (UniProt Q8I2Q1)
Assay: as above
Remark: another data set of the same source

Molecule	binding
B2	binds

No constants are given. Whether binding was seen depends on the method and setting. Binding seen in cells or lysates may run through a third protein. Here binding means that the protein was enriched with, or labelled near, the bait; the list need not be complete.
